Literature values in patent publication US20160201132A1, “GENE EXPRESSION BIOMARKERS OF LAQUINIMOD RESPONSIVENESS” (Teva Pharmaceutical Industries Ltd., priority 2013, published 2016).

Settings: in vivo; cited from earlier work

With CCN(C(=O)c1c(O)c2c(Cl)cccc2n(C)c1=O)c1ccccc1 [LAQ, 5-chloro-N-ethyl-4-hydroxy-1-methyl-2-oxo-N-phenyl-1,2-dihydroquinoline-3-carboxamide] as the molecule, how does the oral bioavailability read?
The oral bioavailability was “high”.
